# The supplement of paper PMC12819154, “High-throughput peptide-centric local stability assay extends protein–ligand identification to membrane proteins, tissues and bacteria” (Nature Structural & Molecular Biology, 2025)
# Amino acid sequences for entries named in this document (tags omitted). A change or cut given only in a name is not applied to a line headed by its entry.
# UniProt Q96HQ2: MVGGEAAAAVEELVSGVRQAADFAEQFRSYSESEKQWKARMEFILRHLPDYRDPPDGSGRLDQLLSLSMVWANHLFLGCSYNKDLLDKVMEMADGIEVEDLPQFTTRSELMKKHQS
# UniProt Q96QG7: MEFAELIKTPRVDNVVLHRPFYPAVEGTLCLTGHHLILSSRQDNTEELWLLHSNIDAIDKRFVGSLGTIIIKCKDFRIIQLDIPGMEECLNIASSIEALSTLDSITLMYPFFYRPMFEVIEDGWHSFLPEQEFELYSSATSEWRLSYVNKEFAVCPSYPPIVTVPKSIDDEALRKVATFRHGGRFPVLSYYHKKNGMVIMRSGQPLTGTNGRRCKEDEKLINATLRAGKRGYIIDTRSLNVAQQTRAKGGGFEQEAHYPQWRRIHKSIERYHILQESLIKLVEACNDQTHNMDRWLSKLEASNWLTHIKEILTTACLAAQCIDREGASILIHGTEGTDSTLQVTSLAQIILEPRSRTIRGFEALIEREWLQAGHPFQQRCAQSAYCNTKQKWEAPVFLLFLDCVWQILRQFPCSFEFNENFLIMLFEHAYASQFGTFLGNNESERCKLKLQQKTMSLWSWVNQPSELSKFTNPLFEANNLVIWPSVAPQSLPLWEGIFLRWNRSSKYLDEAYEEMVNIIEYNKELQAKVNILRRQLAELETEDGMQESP
# UniProt Q96RQ3: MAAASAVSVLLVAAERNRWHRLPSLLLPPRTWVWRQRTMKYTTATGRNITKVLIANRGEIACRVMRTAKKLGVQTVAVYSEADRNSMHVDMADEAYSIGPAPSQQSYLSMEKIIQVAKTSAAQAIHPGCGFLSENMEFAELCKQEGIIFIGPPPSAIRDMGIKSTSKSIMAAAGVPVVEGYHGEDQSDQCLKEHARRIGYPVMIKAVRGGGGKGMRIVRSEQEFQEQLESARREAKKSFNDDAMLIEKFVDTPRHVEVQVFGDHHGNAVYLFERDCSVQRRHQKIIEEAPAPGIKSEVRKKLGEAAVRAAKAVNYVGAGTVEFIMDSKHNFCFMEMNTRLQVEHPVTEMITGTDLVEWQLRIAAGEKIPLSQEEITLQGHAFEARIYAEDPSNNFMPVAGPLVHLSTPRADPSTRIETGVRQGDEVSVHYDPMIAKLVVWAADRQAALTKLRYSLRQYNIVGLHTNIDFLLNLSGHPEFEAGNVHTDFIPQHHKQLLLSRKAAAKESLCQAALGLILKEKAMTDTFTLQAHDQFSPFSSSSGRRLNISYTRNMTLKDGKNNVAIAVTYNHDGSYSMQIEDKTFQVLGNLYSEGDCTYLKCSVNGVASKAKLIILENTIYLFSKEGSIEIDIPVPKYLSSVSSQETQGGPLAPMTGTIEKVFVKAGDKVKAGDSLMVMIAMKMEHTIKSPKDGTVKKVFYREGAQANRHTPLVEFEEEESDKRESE
# UniProt Q96H35: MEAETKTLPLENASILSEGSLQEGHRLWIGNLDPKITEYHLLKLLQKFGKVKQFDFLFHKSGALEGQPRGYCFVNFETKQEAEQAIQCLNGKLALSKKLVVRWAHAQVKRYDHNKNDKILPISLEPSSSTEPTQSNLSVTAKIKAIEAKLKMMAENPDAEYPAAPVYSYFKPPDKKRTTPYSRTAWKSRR
# UniProt Q96RL1: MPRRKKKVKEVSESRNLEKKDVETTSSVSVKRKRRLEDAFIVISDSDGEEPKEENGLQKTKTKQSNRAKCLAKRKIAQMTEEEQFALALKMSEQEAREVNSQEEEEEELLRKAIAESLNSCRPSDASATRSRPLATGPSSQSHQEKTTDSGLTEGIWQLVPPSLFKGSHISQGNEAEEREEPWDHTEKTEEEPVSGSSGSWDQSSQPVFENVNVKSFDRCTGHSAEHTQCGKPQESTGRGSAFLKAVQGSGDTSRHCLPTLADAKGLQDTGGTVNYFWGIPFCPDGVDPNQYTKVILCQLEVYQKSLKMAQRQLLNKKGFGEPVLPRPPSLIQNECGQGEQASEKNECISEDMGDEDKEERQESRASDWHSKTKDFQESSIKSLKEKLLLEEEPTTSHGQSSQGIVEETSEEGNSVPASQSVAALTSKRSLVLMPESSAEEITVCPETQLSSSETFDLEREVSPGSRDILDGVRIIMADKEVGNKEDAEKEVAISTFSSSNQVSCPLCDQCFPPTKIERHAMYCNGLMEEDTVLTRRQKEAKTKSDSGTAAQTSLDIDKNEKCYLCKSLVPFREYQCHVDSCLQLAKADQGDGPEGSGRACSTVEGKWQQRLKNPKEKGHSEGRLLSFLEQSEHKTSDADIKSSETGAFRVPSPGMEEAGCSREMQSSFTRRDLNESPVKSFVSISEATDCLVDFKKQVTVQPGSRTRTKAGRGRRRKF
# UniProt Q96RP9: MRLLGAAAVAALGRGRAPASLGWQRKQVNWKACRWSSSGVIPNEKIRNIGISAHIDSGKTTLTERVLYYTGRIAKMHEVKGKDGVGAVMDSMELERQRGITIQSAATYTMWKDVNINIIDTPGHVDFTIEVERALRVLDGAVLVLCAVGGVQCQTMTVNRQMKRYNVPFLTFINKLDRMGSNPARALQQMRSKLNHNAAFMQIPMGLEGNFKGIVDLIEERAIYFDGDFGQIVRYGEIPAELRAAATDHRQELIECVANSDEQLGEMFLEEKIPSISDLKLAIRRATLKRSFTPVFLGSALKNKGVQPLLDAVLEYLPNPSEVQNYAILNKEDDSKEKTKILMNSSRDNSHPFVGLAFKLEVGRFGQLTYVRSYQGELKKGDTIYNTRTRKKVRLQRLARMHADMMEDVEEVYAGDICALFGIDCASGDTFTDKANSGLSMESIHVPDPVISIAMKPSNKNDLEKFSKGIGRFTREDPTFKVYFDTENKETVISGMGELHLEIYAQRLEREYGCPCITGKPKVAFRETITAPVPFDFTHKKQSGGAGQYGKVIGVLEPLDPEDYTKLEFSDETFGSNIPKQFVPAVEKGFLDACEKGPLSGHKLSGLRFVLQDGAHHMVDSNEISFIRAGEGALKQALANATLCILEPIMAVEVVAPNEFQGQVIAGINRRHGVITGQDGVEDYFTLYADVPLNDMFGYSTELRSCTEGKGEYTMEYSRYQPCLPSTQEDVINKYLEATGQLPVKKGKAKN
# UniProt Q96GX2: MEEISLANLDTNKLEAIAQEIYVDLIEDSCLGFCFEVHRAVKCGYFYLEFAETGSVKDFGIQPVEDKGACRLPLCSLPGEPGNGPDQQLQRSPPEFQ
# UniProt Q96PM9: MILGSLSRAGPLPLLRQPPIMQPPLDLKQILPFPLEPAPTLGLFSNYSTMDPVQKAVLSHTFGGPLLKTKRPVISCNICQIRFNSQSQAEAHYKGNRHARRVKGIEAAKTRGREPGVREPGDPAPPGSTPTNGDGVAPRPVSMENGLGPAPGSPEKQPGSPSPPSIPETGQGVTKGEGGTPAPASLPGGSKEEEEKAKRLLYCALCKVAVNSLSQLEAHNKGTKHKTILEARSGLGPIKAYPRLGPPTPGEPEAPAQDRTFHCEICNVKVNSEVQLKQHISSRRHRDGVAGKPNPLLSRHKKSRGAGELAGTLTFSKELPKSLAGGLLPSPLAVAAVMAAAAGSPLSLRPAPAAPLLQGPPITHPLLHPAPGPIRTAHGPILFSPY
# UniProt Q96NL8: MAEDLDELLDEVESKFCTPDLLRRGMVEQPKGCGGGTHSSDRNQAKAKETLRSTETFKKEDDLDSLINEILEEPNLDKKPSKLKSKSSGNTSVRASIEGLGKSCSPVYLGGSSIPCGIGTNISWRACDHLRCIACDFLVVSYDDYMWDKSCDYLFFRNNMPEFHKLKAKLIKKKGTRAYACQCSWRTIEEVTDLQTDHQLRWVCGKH
# UniProt Q96JK2, whole entry: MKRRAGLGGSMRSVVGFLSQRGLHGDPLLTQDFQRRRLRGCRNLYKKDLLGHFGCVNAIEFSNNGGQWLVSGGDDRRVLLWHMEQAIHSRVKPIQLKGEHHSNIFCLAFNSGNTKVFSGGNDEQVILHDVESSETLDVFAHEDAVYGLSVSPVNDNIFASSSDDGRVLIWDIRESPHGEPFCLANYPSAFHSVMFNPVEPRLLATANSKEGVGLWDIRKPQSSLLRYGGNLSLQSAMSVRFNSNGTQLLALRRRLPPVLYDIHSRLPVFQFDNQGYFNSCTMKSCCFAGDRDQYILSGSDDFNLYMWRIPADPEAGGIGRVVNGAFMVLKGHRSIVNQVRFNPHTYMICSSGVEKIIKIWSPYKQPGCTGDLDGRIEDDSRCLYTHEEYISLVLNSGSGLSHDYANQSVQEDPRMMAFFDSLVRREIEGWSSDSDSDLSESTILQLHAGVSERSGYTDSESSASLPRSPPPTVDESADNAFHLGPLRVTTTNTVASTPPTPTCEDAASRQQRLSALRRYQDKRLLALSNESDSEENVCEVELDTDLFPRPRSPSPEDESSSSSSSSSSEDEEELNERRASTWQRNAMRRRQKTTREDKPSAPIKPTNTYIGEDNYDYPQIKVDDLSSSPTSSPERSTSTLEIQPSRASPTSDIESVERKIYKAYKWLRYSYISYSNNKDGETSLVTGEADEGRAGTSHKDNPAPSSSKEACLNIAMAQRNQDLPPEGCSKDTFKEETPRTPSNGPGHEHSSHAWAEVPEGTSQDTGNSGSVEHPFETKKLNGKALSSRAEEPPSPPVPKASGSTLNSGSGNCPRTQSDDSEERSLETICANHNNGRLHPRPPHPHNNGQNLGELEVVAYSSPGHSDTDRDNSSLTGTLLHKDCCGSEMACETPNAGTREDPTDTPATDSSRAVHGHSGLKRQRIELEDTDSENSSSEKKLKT
# UniProt Q96RT6: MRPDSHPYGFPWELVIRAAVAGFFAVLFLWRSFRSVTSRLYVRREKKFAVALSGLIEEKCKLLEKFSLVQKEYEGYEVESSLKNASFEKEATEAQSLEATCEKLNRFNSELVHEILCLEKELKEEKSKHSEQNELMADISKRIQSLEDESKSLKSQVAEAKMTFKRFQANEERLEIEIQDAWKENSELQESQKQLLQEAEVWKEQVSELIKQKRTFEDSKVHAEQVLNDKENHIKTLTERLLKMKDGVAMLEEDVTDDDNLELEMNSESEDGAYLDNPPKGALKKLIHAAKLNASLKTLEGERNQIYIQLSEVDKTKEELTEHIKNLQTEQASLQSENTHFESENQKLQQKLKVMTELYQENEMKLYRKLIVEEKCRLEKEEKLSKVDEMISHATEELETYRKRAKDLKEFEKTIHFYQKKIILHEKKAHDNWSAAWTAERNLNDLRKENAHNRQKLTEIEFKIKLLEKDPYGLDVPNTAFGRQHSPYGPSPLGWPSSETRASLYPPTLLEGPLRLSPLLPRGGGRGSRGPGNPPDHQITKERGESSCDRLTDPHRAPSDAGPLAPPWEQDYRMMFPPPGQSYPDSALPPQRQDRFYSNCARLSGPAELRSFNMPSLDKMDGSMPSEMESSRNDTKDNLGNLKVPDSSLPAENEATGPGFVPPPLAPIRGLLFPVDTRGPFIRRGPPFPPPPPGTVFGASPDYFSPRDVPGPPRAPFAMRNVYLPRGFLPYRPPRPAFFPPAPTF
# UniProt Q96JN2: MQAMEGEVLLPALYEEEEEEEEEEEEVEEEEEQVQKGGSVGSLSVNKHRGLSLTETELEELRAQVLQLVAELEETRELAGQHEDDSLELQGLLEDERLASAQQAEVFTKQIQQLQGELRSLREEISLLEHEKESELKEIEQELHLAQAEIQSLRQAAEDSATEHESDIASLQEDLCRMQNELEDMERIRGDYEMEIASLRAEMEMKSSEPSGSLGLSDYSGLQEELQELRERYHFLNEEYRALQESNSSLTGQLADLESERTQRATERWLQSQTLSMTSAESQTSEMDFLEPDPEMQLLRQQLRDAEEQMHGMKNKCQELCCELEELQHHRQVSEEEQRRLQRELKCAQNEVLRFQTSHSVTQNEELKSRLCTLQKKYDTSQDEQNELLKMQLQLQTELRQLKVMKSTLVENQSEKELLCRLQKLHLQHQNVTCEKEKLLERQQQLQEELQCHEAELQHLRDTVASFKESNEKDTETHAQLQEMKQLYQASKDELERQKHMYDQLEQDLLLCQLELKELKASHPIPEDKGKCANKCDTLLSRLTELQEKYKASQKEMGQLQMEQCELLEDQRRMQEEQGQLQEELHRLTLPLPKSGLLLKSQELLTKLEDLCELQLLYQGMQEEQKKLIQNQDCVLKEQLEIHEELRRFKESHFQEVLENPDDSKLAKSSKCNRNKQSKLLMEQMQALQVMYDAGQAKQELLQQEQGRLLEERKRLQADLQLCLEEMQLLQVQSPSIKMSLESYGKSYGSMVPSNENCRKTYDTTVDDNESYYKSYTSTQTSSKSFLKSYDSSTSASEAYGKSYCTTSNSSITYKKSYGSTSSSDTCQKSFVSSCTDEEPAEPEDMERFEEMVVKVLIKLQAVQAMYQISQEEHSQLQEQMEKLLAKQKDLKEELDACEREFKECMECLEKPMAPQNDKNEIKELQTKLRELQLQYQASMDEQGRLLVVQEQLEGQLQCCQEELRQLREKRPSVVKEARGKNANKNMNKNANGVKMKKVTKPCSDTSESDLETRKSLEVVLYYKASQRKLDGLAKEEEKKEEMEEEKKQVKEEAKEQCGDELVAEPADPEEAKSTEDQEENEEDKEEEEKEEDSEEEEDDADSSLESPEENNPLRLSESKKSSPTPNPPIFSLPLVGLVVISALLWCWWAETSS
# The list shows a part of the results. Most entries show no effect beyond the scatter of the controls.
# Compound: CN[C@@H]1C[C@H]2O[C@@](C)([C@@H]1OC)n1c3ccccc3c3c4c(c5c6ccccc6n2c5c31)C(=O)NC4 [staurosporine]
# Assay: log2 fold change of tryptic peptide abundance, ligand vs vehicle (limited proteolysis) (log2 ratio); higher = more trypsin-susceptible (destabilized)
# Conditions: ligand concentration: 20 uM; sample: K562 cleared lysate; digestion: 4 min, 22 C (HT-PELSA RT4min, Orbitrap Astral)
row,Target,log2 fold change
1,"TCF12 (peptide sequence: RRPLHDSAALDPLQAK, peptide start residue: 166) (UniProt Q99081)",-0.0949
2,"RPRD1A (peptide sequence: MVEDACMLLADYNGR, peptide start residue: 215) (UniProt Q96P16)",-0.253
3,"UniProt Q96TA1 (peptide sequence: HEIEGTGLPQAQLLWR, peptide start residue: 46)",0.409
4,"NACC1 (peptide sequence: VLKAEDDAYTTFISETGK, peptide start residue: 481) (UniProt Q96RE7)",0.373
5,"CDKN2AIPNL (peptide sequence: VGGEAAAAVEELVSGVR, peptide start residue: 2) (UniProt Q96HQ2)",-0.242
6,"UniProt Q96HE9 (peptide sequence: VTNVLITPGK, peptide start residue: 281)",-0.237
7,"KIF16B (peptide sequence: ITVLDETWTVFRR, peptide start residue: 1208) (UniProt Q96L93)",1.1
8,"SPAG5 (peptide sequence: AKEADIEKLNQALCLR, peptide start residue: 1022) (UniProt Q96R06)",-1.34
9,"FNBP1 (peptide sequence: NDSQLVIEAYK, peptide start residue: 263) (UniProt Q96RU3)",-0.404
10,"MTMR9 (peptide sequence: AKGGGFEQEAHYPQWR, peptide start residue: 247) (UniProt Q96QG7)",-0.285
11,"UniProt Q96H22 (peptide sequence: ASISDAALLDIIYMQFHQHQK, peptide start residue: 61)",0.311
12,"CCDC138 (peptide sequence: VVKPPGQDLVVESLK, peptide start residue: 5) (UniProt Q96M89)",0.331
13,"UniProt Q96H12 (peptide sequence: SILLALVEK, peptide start residue: 19)",0.252
14,"CNOT6L (peptide sequence: YNECLMNFSCNGK, peptide start residue: 440) (UniProt Q96LI5)",-0.177
15,"MCCC1 (peptide sequence: SEQEFQEQLESARR, peptide start residue: 220) (UniProt Q96RQ3)",0.196
16,"UniProt Q96PU8 (peptide sequence: MVGEMETK, peptide start residue: 1)",0.128
17,"CLPTM1L (peptide sequence: VNEFGESYEEK, peptide start residue: 520) (UniProt Q96KA5)",0.55
18,"RBM18 (peptide sequence: ITEYHLLK, peptide start residue: 36) (UniProt Q96H35)",0.49

row,Target,log2 fold change
1,"DOCK7 (peptide sequence: DSNPVDKCK, peptide start residue: 1895) (UniProt Q96N67)",-0.157
2,"UIMC1 (peptide sequence: IIMADKEVGNKEDAEK, peptide start residue: 475) (UniProt Q96RL1)",-0.181
3,"HEXIM2 (peptide sequence: DYLELEKR, peptide start residue: 216) (UniProt Q96MH2)",-0.613
4,"GFM1 (peptide sequence: VYFDTENK, peptide start residue: 482) (UniProt Q96RP9)",0.0741
5,"INTS4 (peptide sequence: LLLAYNSSAR, peptide start residue: 913) (UniProt Q96HW7)",0.152
6,"ATXN7L3B (peptide sequence: DFGIQPVEDK, peptide start residue: 58) (UniProt Q96GX2)",0.0241
7,"ZNF385A (peptide sequence: RPVISCNICQIR, peptide start residue: 71) (UniProt Q96PM9)",-0.369
8,"UniProt Q96L94 (peptide sequence: ELLEFLR, peptide start residue: 100)",-0.15
9,"RUFY1 (peptide sequence: AAAGLGGGDSGDGTAR, peptide start residue: 87) (UniProt Q96T51)",-0.172
10,"C8orf37 (peptide sequence: EDDLDSLINEILEEPNLDKKPSK, peptide start residue: 60) (UniProt Q96NL8)",0.309
11,"PHF12 (peptide sequence: FQDTVSQHVVK, peptide start residue: 341) (UniProt Q96QT6)",-0.605
12,"DOCK6 (peptide sequence: ESVLGAVLK, peptide start residue: 1410) (UniProt Q96HP0)",-0.607
13,"GPATCH3 (peptide sequence: HEALHEDVTGQER, peptide start residue: 303) (UniProt Q96I76)",0.42
14,"DCAF5 (peptide sequence: IPADPEAGGIGR, peptide start residue: 309) (UniProt Q96JK2)",0.524
15,"UniProt Q96RT6 (peptide sequence: EATEAQSLEATCEKLNR, peptide start residue: 728)",-0.317
16,"CCDC136 (peptide sequence: FQTSHSVTQNEELK, peptide start residue: 355) (UniProt Q96JN2)",-0.0286
17,"IFT74 (peptide sequence: VATAMPPGTARPGSR, peptide start residue: 37) (UniProt Q96LB3)",-0.373
18,"UniProt Q96L50 (peptide sequence: MKLHCEVEVISRHLPALGLR, peptide start residue: 1)",-0.306

# Another view of part of the listing above:
row | Target | log2 fold change
12 | CCDC138 (peptide sequence: VVKPPGQDLVVESLK, peptide start residue: 5) (UniProt Q96M89) | 0.331
13 | UniProt Q96H12 (peptide sequence: SILLALVEK, peptide start residue: 19) | 0.252
